Test results: the supplement of paper PMC9233669
This sample is rich in variants without activity.

Key:
biotinyl-Val-oxazolone = test: self-aminoacylation, catalytic enhancement (BVO) (fold over background); higher = more active; k-Seq, kA / k0A0; sequences stand for … in GGGAAUGGAUCCACAUCUACGAAUUC…UUCACUGCAGACUUGACGAAGCUG
Method in brief: (§1)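 Mutagenized RNA pools with a 21-nt variable region (0.43 μM) were reacted with each biotinyl-aminoacyl-oxazolone at 2–1250 μM for 90 minutes at room temperature, in 50 μL HEPES/NaCl/KCl/MgCl2/CaCl2 buffer containing 5% acetonitrile at pH 6.9–7.0. RNA captured on streptavidin was quantified by triplicate qPCR and by Illumina sequencing. The fraction reacted for each sequence was fit to a pseudo-first-order model with bootstrapping, and catalytic enhancement is the median kA divided by the uncatalyzed rate, taken as the low-activity peak of a bimodal Gaussian fit.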

biotinyl-Ile-oxazolone = test: self-aminoacylation, catalytic enhancement (BIO) (fold over background); higher = more active; k-Seq, kA / k0A0; sequences stand for … in GGGAAUGGAUCCACAUCUACGAAUUC…UUCACUGCAGACUUGACGAAGCUG
Method in brief: as §1

biotinyl-Met-oxazolone = test: self-aminoacylation, catalytic enhancement (BMO) (fold over background); higher = more active; k-Seq, kA / k0A0; sequences stand for … in GGGAAUGGAUCCACAUCUACGAAUUC…UUCACUGCAGACUUGACGAAGCUG
Method in brief: as §1

biotinyl-Trp-oxazolone = test: self-aminoacylation, catalytic enhancement (BWO) (fold over background); higher = more active; k-Seq, kA / k0A0; sequences stand for … in GGGAAUGGAUCCACAUCUACGAAUUC…UUCACUGCAGACUUGACGAAGCUG
Method in brief: as §1

biotinyl-Leu-oxazolone = test: self-aminoacylation, catalytic enhancement (BLO) (fold over background); higher = more active; k-Seq, kA / k0A0; sequences stand for … in GGGAAUGGAUCCACAUCUACGAAUUC…UUCACUGCAGACUUGACGAAGCUG
Method in brief: as §1

Sequence: AGUCACCUAGGUCAUCGCGUG [Fam2.2 aminoacylation ribozyme variant]
- self-aminoacylation (biotinyl-Val-oxazolone): 9.1
- self-aminoacylation (biotinyl-Ile-oxazolone): 8.4
- self-aminoacylation (biotinyl-Met-oxazolone): 14.4
- self-aminoacylation (biotinyl-Trp-oxazolone): 14.3
- self-aminoacylation (biotinyl-Leu-oxazolone): 18.3

Sequence: AUAACCCUGGUAAUCGAGUGA [Fam2.1 aminoacylation ribozyme variant]
- self-aminoacylation (biotinyl-Val-oxazolone): 3.58
- self-aminoacylation (biotinyl-Ile-oxazolone): 3.97
- self-aminoacylation (biotinyl-Met-oxazolone): 7.93
- self-aminoacylation (biotinyl-Trp-oxazolone): 9.38
- self-aminoacylation (biotinyl-Leu-oxazolone): 8.57

Sequence: AUACACCUAGGUCGUCGGGUG [Fam2.2 aminoacylation ribozyme variant]
- self-aminoacylation (biotinyl-Val-oxazolone): 1.69
- self-aminoacylation (biotinyl-Ile-oxazolone): 1.71
- self-aminoacylation (biotinyl-Met-oxazolone): 1.92
- self-aminoacylation (biotinyl-Trp-oxazolone): 1.83

Sequence: AUCACCCUGGUCAUCGAGUGA [Fam2.1 aminoacylation ribozyme variant]
- self-aminoacylation (biotinyl-Val-oxazolone): 11.3
- self-aminoacylation (biotinyl-Ile-oxazolone): 10.6
- self-aminoacylation (biotinyl-Met-oxazolone): 27.8
- self-aminoacylation (biotinyl-Trp-oxazolone): 28.4
- self-aminoacylation (biotinyl-Leu-oxazolone): 27

Sequence: AUCACCGUGGUCAUCGAGUGA [Fam2.1 aminoacylation ribozyme variant]
- self-aminoacylation (biotinyl-Val-oxazolone): 4.01
- self-aminoacylation (biotinyl-Ile-oxazolone): 3.99
- self-aminoacylation (biotinyl-Met-oxazolone): 7.05
- self-aminoacylation (biotinyl-Trp-oxazolone): 7.75
- self-aminoacylation (biotinyl-Leu-oxazolone): 6.15

Sequence: AUGUUUGCUAAUAGUCGCAAU [Fam3.1 aminoacylation ribozyme variant]
- self-aminoacylation (biotinyl-Val-oxazolone): 1.37
- self-aminoacylation (biotinyl-Ile-oxazolone): 1.6
- self-aminoacylation (biotinyl-Met-oxazolone): 1.08
- self-aminoacylation (biotinyl-Trp-oxazolone): 1.99
- self-aminoacylation (biotinyl-Leu-oxazolone): 1.33

Sequence: AUGUUUGCUACUAGUCGCAAG [Fam3.1 aminoacylation ribozyme variant]
- self-aminoacylation (biotinyl-Val-oxazolone): 1.18
- self-aminoacylation (biotinyl-Ile-oxazolone): 1.36
- self-aminoacylation (biotinyl-Met-oxazolone): 1.2
- self-aminoacylation (biotinyl-Trp-oxazolone): 1.15
- self-aminoacylation (biotinyl-Leu-oxazolone): 1.61

Sequence: AUUAACCUAGGUCAUCGGCUG [Fam2.2 aminoacylation ribozyme variant]
- self-aminoacylation (biotinyl-Val-oxazolone): 1.59
- self-aminoacylation (biotinyl-Ile-oxazolone): 1.35
- self-aminoacylation (biotinyl-Met-oxazolone): 1.49
- self-aminoacylation (biotinyl-Trp-oxazolone): 1.57
- self-aminoacylation (biotinyl-Leu-oxazolone): 1.35

Sequence: AUUACCCUGGUCCUCGAGUGG [Fam2.1 aminoacylation ribozyme variant]
- self-aminoacylation (biotinyl-Val-oxazolone): 1.23
- self-aminoacylation (biotinyl-Ile-oxazolone): 1.07
- self-aminoacylation (biotinyl-Trp-oxazolone): 1.63
- self-aminoacylation (biotinyl-Leu-oxazolone): 1.42

Sequence: AUUACCCUGGUCGUCGAGUGG [Fam2.1 aminoacylation ribozyme variant]
- self-aminoacylation (biotinyl-Val-oxazolone): 0.815
- self-aminoacylation (biotinyl-Ile-oxazolone): 0.964
- self-aminoacylation (biotinyl-Met-oxazolone): 0.991
- self-aminoacylation (biotinyl-Trp-oxazolone): 0.807
- self-aminoacylation (biotinyl-Leu-oxazolone): 0.855

Sequence: AUUCACCAAGGCCAUCGGGUG [Fam2.2 aminoacylation ribozyme variant]
- self-aminoacylation (biotinyl-Val-oxazolone): 3.49
- self-aminoacylation (biotinyl-Ile-oxazolone): 3.32
- self-aminoacylation (biotinyl-Met-oxazolone): 5.09
- self-aminoacylation (biotinyl-Trp-oxazolone): 4.57
- self-aminoacylation (biotinyl-Leu-oxazolone): 5.34

Sequence: AUUCACCUAGAUCAUCGGGUA [Fam2.2 aminoacylation ribozyme variant]
- self-aminoacylation (biotinyl-Val-oxazolone): 1.84
- self-aminoacylation (biotinyl-Ile-oxazolone): 1.58
- self-aminoacylation (biotinyl-Trp-oxazolone): 1.58
- self-aminoacylation (biotinyl-Leu-oxazolone): 1.46

Sequence: AUUCACCUAGGUCACAGGGUG [Fam2.2 aminoacylation ribozyme variant]
- self-aminoacylation (biotinyl-Val-oxazolone): 1.18
- self-aminoacylation (biotinyl-Ile-oxazolone): 1.29
- self-aminoacylation (biotinyl-Met-oxazolone): 1.63
- self-aminoacylation (biotinyl-Trp-oxazolone): 1.74
- self-aminoacylation (biotinyl-Leu-oxazolone): 1.84

Sequence: AUUCACCUAGGUCACCGGAUG [Fam2.2 aminoacylation ribozyme variant]
- self-aminoacylation (biotinyl-Val-oxazolone): 1.57
- self-aminoacylation (biotinyl-Ile-oxazolone): 1.49
- self-aminoacylation (biotinyl-Met-oxazolone): 1.05
- self-aminoacylation (biotinyl-Trp-oxazolone): 1.84
- self-aminoacylation (biotinyl-Leu-oxazolone): 1.38

Sequence: AUUCACCUAGGUCGUCGUGUG [Fam2.2 aminoacylation ribozyme variant]
- self-aminoacylation (biotinyl-Val-oxazolone): 0.724
- self-aminoacylation (biotinyl-Ile-oxazolone): 0.603
- self-aminoacylation (biotinyl-Met-oxazolone): 0.762
- self-aminoacylation (biotinyl-Trp-oxazolone): 0.488
- self-aminoacylation (biotinyl-Leu-oxazolone): 0.782

Sequence: AUUCACCUGGGUCAUAGGGUG [Fam2.2 aminoacylation ribozyme variant]
- self-aminoacylation (biotinyl-Val-oxazolone): 1.5
- self-aminoacylation (biotinyl-Ile-oxazolone): 1.53
- self-aminoacylation (biotinyl-Met-oxazolone): 1.92
- self-aminoacylation (biotinyl-Trp-oxazolone): 1.48

Sequence: AUUCACGUACGUCAUCGGGUG [Fam2.2 aminoacylation ribozyme variant]
- self-aminoacylation (biotinyl-Val-oxazolone): 6.9
- self-aminoacylation (biotinyl-Ile-oxazolone): 6.46
- self-aminoacylation (biotinyl-Met-oxazolone): 12.2
- self-aminoacylation (biotinyl-Trp-oxazolone): 9.47
- self-aminoacylation (biotinyl-Leu-oxazolone): 12.8

Sequence: AUUCAUCUAGGUCAUCGGCUG [Fam2.2 aminoacylation ribozyme variant]
- self-aminoacylation (biotinyl-Val-oxazolone): 1.61
- self-aminoacylation (biotinyl-Ile-oxazolone): 1.69
- self-aminoacylation (biotinyl-Met-oxazolone): 1.82
- self-aminoacylation (biotinyl-Trp-oxazolone): 1.59
- self-aminoacylation (biotinyl-Leu-oxazolone): 1.87

Sequence: AUUCCCAUAGGUCAUCGGGUG [Fam2.2 aminoacylation ribozyme variant]
- self-aminoacylation (biotinyl-Val-oxazolone): 13.4
- self-aminoacylation (biotinyl-Ile-oxazolone): 15.6
- self-aminoacylation (biotinyl-Met-oxazolone): 23.9
- self-aminoacylation (biotinyl-Trp-oxazolone): 22
- self-aminoacylation (biotinyl-Leu-oxazolone): 32.7

Sequence: AUUCUCCUAGGUCAUCGUGUG [Fam2.2 aminoacylation ribozyme variant]
- self-aminoacylation (biotinyl-Val-oxazolone): 1.15
- self-aminoacylation (biotinyl-Ile-oxazolone): 1.15
- self-aminoacylation (biotinyl-Met-oxazolone): 1.36
- self-aminoacylation (biotinyl-Trp-oxazolone): 1.32
- self-aminoacylation (biotinyl-Leu-oxazolone): 1.48

Sequence: AUUGACCUAGGUCAUCGGGUU [Fam2.2 aminoacylation ribozyme variant]
- self-aminoacylation (biotinyl-Val-oxazolone): 6.49
- self-aminoacylation (biotinyl-Ile-oxazolone): 7.25
- self-aminoacylation (biotinyl-Met-oxazolone): 13.9
- self-aminoacylation (biotinyl-Trp-oxazolone): 12.2
- self-aminoacylation (biotinyl-Leu-oxazolone): 18.8

Sequence: AUUGCCCUGGUCAGCGAGUGA [Fam2.1 aminoacylation ribozyme variant]
- self-aminoacylation (biotinyl-Val-oxazolone): 3.76
- self-aminoacylation (biotinyl-Ile-oxazolone): 3.29
- self-aminoacylation (biotinyl-Met-oxazolone): 5.91
- self-aminoacylation (biotinyl-Trp-oxazolone): 6.28
- self-aminoacylation (biotinyl-Leu-oxazolone): 5.65

Sequence: CAACUUCAACCAAUCGGUCUG [Fam1A.1 aminoacylation ribozyme variant]
- self-aminoacylation (biotinyl-Val-oxazolone): 1.61
- self-aminoacylation (biotinyl-Ile-oxazolone): 1.37
- self-aminoacylation (biotinyl-Met-oxazolone): 1.67
- self-aminoacylation (biotinyl-Trp-oxazolone): 33.2
- self-aminoacylation (biotinyl-Leu-oxazolone): 2.41

Sequence: CACCUUCAAACAAUCGGUCUG [Fam1A.1 aminoacylation ribozyme variant]
- self-aminoacylation (biotinyl-Val-oxazolone): 1.63
- self-aminoacylation (biotinyl-Ile-oxazolone): 1.78
- self-aminoacylation (biotinyl-Met-oxazolone): 1.77
- self-aminoacylation (biotinyl-Trp-oxazolone): 43.9
- self-aminoacylation (biotinyl-Leu-oxazolone): 2.61

Sequence: CAGUUUGCUAAUAGUCGCUAG [Fam3.1 aminoacylation ribozyme variant]
- self-aminoacylation (biotinyl-Val-oxazolone): 1.17
- self-aminoacylation (biotinyl-Ile-oxazolone): 1.76
- self-aminoacylation (biotinyl-Met-oxazolone): 1.12
- self-aminoacylation (biotinyl-Trp-oxazolone): 1.5
- self-aminoacylation (biotinyl-Leu-oxazolone): 1.4

Sequence: CCAAACUUCGAGCAAUCGGUC [Fam1B.1 aminoacylation ribozyme variant]
- self-aminoacylation (biotinyl-Val-oxazolone): 1.55
- self-aminoacylation (biotinyl-Ile-oxazolone): 1.47
- self-aminoacylation (biotinyl-Met-oxazolone): 1.47
- self-aminoacylation (biotinyl-Trp-oxazolone): 1.34
- self-aminoacylation (biotinyl-Leu-oxazolone): 1.45

Sequence: CCACACCACAAGCAAUCGGUC [Fam1B.1 aminoacylation ribozyme variant]
- self-aminoacylation (biotinyl-Val-oxazolone): 1.1
- self-aminoacylation (biotinyl-Ile-oxazolone): 1.13
- self-aminoacylation (biotinyl-Met-oxazolone): 0.999
- self-aminoacylation (biotinyl-Trp-oxazolone): 0.871
- self-aminoacylation (biotinyl-Leu-oxazolone): 0.949

Sequence: CCACACCUCAAGCAAUCAGUC [Fam1B.1 aminoacylation ribozyme variant]
- self-aminoacylation (biotinyl-Val-oxazolone): 0.856
- self-aminoacylation (biotinyl-Ile-oxazolone): 0.843
- self-aminoacylation (biotinyl-Met-oxazolone): 0.804
- self-aminoacylation (biotinyl-Trp-oxazolone): 0.558
- self-aminoacylation (biotinyl-Leu-oxazolone): 0.6

Sequence: CUACUUCAAACAAUCGGCCGG [Fam1A.1 aminoacylation ribozyme variant]
- self-aminoacylation (biotinyl-Val-oxazolone): 1.53
- self-aminoacylation (biotinyl-Met-oxazolone): 1.45
- self-aminoacylation (biotinyl-Trp-oxazolone): 1.8
- self-aminoacylation (biotinyl-Leu-oxazolone): 1.02
